PubChem BioAssay AID1159595 | NIAID | 2016

- Test: 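Which toll-like receptor pathway genes macrophages need for Pam3CSK4-induced Tnf promoter activity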 (primary screen)
- System: mouse RAW264.7 macrophage reporter cells
- Knock-down reagent: single siRNA against mouse genes
- Timing: assayed 48 to 72 hours after siRNA transfection; ligand applied for 16 hours
- Conditions: Pam3CSK4 (TLR2 ligand) for 16 hours before fixation; dose not given
- Measured: 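High-content imaging of Tnf promoter-driven nuclear mCherry in cells given Pam3CSK4 for 16 h, 48–72 h after transfection; value is the replicate mean of plate-normalised background-corrected robust z-scores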
- Scale: Tnf reporter z-score (replicate mean): higher = stronger Tnf promoter reporter signal than negative control wells
- Rule for the call: 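Calls apply to single siRNAs, not genes: activity graded at absolute z of 1, 1.5, 2 and 2.5, and active means averaged z at or beyond ±1.5, i.e. activity score 50 or above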
- Meaning of the calls: active = strong change (up or down); inactive = little change
Here is a random part of 756 deposited reagents. Over the whole deposit, 115 (15%) got an active call. 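Active calls cover both lowered and raised reporter signal; each score refers to one siRNA rather than a whole gene.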 Unmarked entries are inactive. Reagents against one gene are numbered here. Not given: the amount of reagent.

With knock-down of Map3k8 (mitogen-activated protein kinase kinase kinase 8) #1, the screen gave Tnf reporter z-score (replicate mean) = 0.02.
Map3k8 (mitogen-activated protein kinase kinase kinase 8) #2 showed Tnf reporter z-score (replicate mean) = 0.331.
Against Map3k8 (mitogen-activated protein kinase kinase kinase 8) #3 the deposit lists Tnf reporter z-score (replicate mean) = -0.876.
Silencing of Map3k8 (mitogen-activated protein kinase kinase kinase 8) #4 came out at: Tnf reporter z-score (replicate mean) = 0.392.
After knock-down of Map3k8 (mitogen-activated protein kinase kinase kinase 8) #5, the record shows Tnf reporter z-score (replicate mean) = -0.369.
For Map3k8 (mitogen-activated protein kinase kinase kinase 8) #6, the values are Tnf reporter z-score (replicate mean) = -0.366.
Map2k1 (mitogen-activated protein kinase kinase 1) #1 gave Tnf reporter z-score (replicate mean) = 0.426.
Depletion of Map2k1 (mitogen-activated protein kinase kinase 1) #2 came out at: Tnf reporter z-score (replicate mean) = -0.998.
Against Map2k1 (mitogen-activated protein kinase kinase 1) #3 the deposit lists Tnf reporter z-score (replicate mean) = -0.737.
For Map2k1 (mitogen-activated protein kinase kinase 1) #4 the deposit lists Tnf reporter z-score (replicate mean) = 0.183.
Against Map2k1 (mitogen-activated protein kinase kinase 1) #5, the entry reads Tnf reporter z-score (replicate mean) = -0.623.
Map2k1 (mitogen-activated protein kinase kinase 1) #6 gave Tnf reporter z-score (replicate mean) = -0.973.
Nfkbia #1 scored Tnf reporter z-score (replicate mean) = -0.421.
Nfkbia #2 scored Tnf reporter z-score (replicate mean) = 0.36.
For Nfkbia #3, the entry reads Tnf reporter z-score (replicate mean) = 1.96 (active).
Against Nfkbia #4 the deposit lists Tnf reporter z-score (replicate mean) = 0.929.
Depletion of Nfkbia #5 gave: Tnf reporter z-score (replicate mean) = 1.64 (active).
For Nfkbia #6 the deposit lists Tnf reporter z-score (replicate mean) = -1.04.
For Map2k7 (mitogen-activated protein kinase kinase 7) #1, the entry reads Tnf reporter z-score (replicate mean) = 1.88 (active).
Knock-down of Map2k7 (mitogen-activated protein kinase kinase 7) #2 came out at: Tnf reporter z-score (replicate mean) = -1.21.
Depletion of Map2k7 (mitogen-activated protein kinase kinase 7) #3 came out at: Tnf reporter z-score (replicate mean) = -1.41.
Silencing of Map2k7 (mitogen-activated protein kinase kinase 7) #4 gave: Tnf reporter z-score (replicate mean) = -0.58.
Against Map2k7 (mitogen-activated protein kinase kinase 7) #5, the values are Tnf reporter z-score (replicate mean) = 0.253.
Knock-down of Map2k7 (mitogen-activated protein kinase kinase 7) #6 resulted in: Tnf reporter z-score (replicate mean) = -1.06.
After knock-down of Irf5 (interferon regulatory factor 5) #1, the record shows Tnf reporter z-score (replicate mean) = -2.22 (active).
Silencing of Irf5 (interferon regulatory factor 5) #2 gave: Tnf reporter z-score (replicate mean) = -0.331.
Irf5 (interferon regulatory factor 5) #3 showed Tnf reporter z-score (replicate mean) = 0.232.
After knock-down of Irf5 (interferon regulatory factor 5) #4 the results were Tnf reporter z-score (replicate mean) = -0.949.
Silencing of Irf5 (interferon regulatory factor 5) #5 resulted in: Tnf reporter z-score (replicate mean) = -0.197.
For Irf5 (interferon regulatory factor 5) #6, the entry reads Tnf reporter z-score (replicate mean) = 0.363.
Lbp (lipopolysaccharide binding protein) #1 scored Tnf reporter z-score (replicate mean) = 0.211.
Against Lbp (lipopolysaccharide binding protein) #2, the values are Tnf reporter z-score (replicate mean) = 1.46.
Lbp (lipopolysaccharide binding protein) #3 scored Tnf reporter z-score (replicate mean) = 0.268.
For Lbp (lipopolysaccharide binding protein) #4, the entry reads Tnf reporter z-score (replicate mean) = -2.6 (active).
Lbp (lipopolysaccharide binding protein) #5 scored Tnf reporter z-score (replicate mean) = 0.631.
Depletion of Lbp (lipopolysaccharide binding protein) #6 gave: Tnf reporter z-score (replicate mean) = 0.218.
For Tab2 (TGF-beta activated kinase 1/MAP3K7 binding protein 2) #1, the entry reads Tnf reporter z-score (replicate mean) = -0.18.
Tab2 (TGF-beta activated kinase 1/MAP3K7 binding protein 2) #2 showed Tnf reporter z-score (replicate mean) = -0.198.
Against Tab2 (TGF-beta activated kinase 1/MAP3K7 binding protein 2) #3, the entry reads Tnf reporter z-score (replicate mean) = -0.322.
Silencing of Tab2 (TGF-beta activated kinase 1/MAP3K7 binding protein 2) #4 resulted in: Tnf reporter z-score (replicate mean) = -0.468.
Silencing of Tab2 (TGF-beta activated kinase 1/MAP3K7 binding protein 2) #5 gave: Tnf reporter z-score (replicate mean) = -0.474.
Knock-down of Tab2 (TGF-beta activated kinase 1/MAP3K7 binding protein 2) #6 gave: Tnf reporter z-score (replicate mean) = -0.736.
Sp1 (trans-acting transcription factor 1) #1 showed Tnf reporter z-score (replicate mean) = -1.02.
Against Sp1 (trans-acting transcription factor 1) #2, the values are Tnf reporter z-score (replicate mean) = -1.3.
Sp1 (trans-acting transcription factor 1) #3 showed Tnf reporter z-score (replicate mean) = -2.37 (active).
For Sp1 (trans-acting transcription factor 1) #4 the deposit lists Tnf reporter z-score (replicate mean) = -1.54 (active).
With knock-down of Sp1 (trans-acting transcription factor 1) #5, the record shows Tnf reporter z-score (replicate mean) = -0.791.
Silencing of Sp1 (trans-acting transcription factor 1) #6 gave: Tnf reporter z-score (replicate mean) = -1.86 (active).

Targets above whose target name starts with I or i (6):
Irf5 (interferon regulatory factor 5) #1 | Tnf reporter z-score (replicate mean) = -2.22 (active)
Irf5 (interferon regulatory factor 5) #2 | Tnf reporter z-score (replicate mean) = -0.331
Irf5 (interferon regulatory factor 5) #3 | Tnf reporter z-score (replicate mean) = 0.232
Irf5 (interferon regulatory factor 5) #4 | Tnf reporter z-score (replicate mean) = -0.949
Irf5 (interferon regulatory factor 5) #5 | Tnf reporter z-score (replicate mean) = -0.197
Irf5 (interferon regulatory factor 5) #6 | Tnf reporter z-score (replicate mean) = 0.363
